Measured values published in PubChem BioAssay AID256 (DTP/NCI, 2004).
The list is a part of this screen's results and no random one: it is rich in T/C values a quarter to a half above the control, in often repeated tests (any T/C) and in doses without a T/C. Other doses and runs of a compound stand elsewhere. T/C is the treated group as % of the vehicle group. Some doses have a count of surviving animals in place of a T/C: the source files T/C as zero there, which appears to mark a toxic dose or a test without result, not a measured value. Counts of survivors are from the toxicity check (mostly the fifth day) where no day follows; animals may have died later. Schedule codes are those of the source, taken here to give the interval after Q, in days (D) or hours (H), and the number of doses after X. For survival time, this PubChem deposit counts one and a half times the control or more as active, and values a quarter to a half above the control carry no call in these data; other NCI protocols may use other cut-offs. Some T/C values are followed by the survivors on the day toxicity was checked, most often the fifth; without a count, all were alive then. Some entries were tested several times; their values stand side by side, smallest first. Counts like (3×) stand for listed records that agree.

System: CD2F1 mice, L1210 leukemia ip, survival T/C
Experiment: NCI In Vivo Anticancer Drug Screen. Data for tumor model L1210 Leukemia (intraperitoneal) in CD2F1 (CDF1) mice
Conditions: T/C endpoint: mean survival time, higher T/C = longer survival
How it was run: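 Compound-dosed mice with transplantable tumor versus matched vehicle controls; endpoint ratio T/C reported.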

[1] = dose: 8.0 mg/kg/injection, schedule: Q01DX009 (ip), vehicle: saline + alcohol

O=NN(CCCl)C(=O)NCCCl
T/C (dose: 2.0 mg/kg/injection, schedule: Q01DX009 (ip), vehicle: Klucel (hydroxypropylcellulose) (HPC)): 128, 135, 146, 161 % of control
T/C (dose: 2.0 mg/kg/injection, schedule: Q01DX009 (ip), vehicle: saline + alcohol, evaluated on day 30): 148, 156, 157, 161, 162, 164 % of control
T/C (dose: 2.0 mg/kg/injection, schedule: Q01DX009 (ip), vehicle: saline + alcohol, evaluated on day 45): 114 % of control
T/C (dose: 2.0 mg/kg/injection, schedule: Q01DX009 (ip), vehicle: saline, evaluated on day 30): 137, 141, 161, 163, 170, 185, 186 (2×), 194, 202 [5 of 6 alive], 204 % of control
T/C (dose: 2.0 mg/kg/injection, schedule: Q01DX009 (ip), vehicle: saline, evaluated on day 60): 160, 167, 174, 179 % of control
T/C (dose: 4.0 mg/kg/injection, schedule: Q01DX009 (ip), vehicle: Klucel (hydroxypropylcellulose) (HPC)): 169, 173 [5 of 6 alive], 194, 218 % of control
T/C (dose: 4.0 mg/kg/injection, schedule: Q01DX009 (ip), vehicle: saline + alcohol, evaluated on day 30): 194, 215, 226, 229, 246, 260 % of control
T/C (dose: 4.0 mg/kg/injection, schedule: Q01DX009 (ip), vehicle: saline + alcohol, evaluated on day 45): 128 % of control [4 of 6 alive]
T/C (dose: 4.0 mg/kg/injection, schedule: Q01DX009 (ip), vehicle: saline, evaluated on day 30): 184, 206, 229, 232, 236, 243, 253, 257, 262, 289, 292 % of control
T/C (dose: 4.0 mg/kg/injection, schedule: Q01DX009 (ip), vehicle: saline, evaluated on day 60): 198, 223, 234, 263 % of control
T/C (dose: 5.0 mg/kg/injection, schedule: Q01DX001 (ip), vehicle: DMSO): 127 % of control
T/C (dose: 5.0 mg/kg/injection, schedule: Q01DX001 (ip), vehicle: saline + alcohol, evaluated on day 5): 122 % of control
T/C (dose: 5.0 mg/kg/injection, schedule: Q01DX001 (ip), vehicle: saline + alcohol, evaluated on day 8): 120 % of control
T/C (dose: 5.0 mg/kg/injection, schedule: Q01DX001 (ip), vehicle: saline + alcohol, evaluated on day 30): 121 % of control
T/C (dose: 5.0 mg/kg/injection, schedule: Q01DX001 (ip), vehicle: saline + alcohol, evaluated on day 45): 133 % of control
T/C (dose: 5.0 mg/kg/injection, schedule: Q01DX001 (ip), vehicle: saline): 132 % of control
T/C (dose: 7.5 mg/kg/injection, schedule: Q01DX001 (ip), vehicle: saline + alcohol, evaluated on day 30): 123 and 127 % of control
T/C (dose: 7.5 mg/kg/injection, schedule: Q01DX001 (ip), vehicle: saline + alcohol, evaluated on day 40): 118 and 147 % of control
T/C (dose: 8.0 mg/kg/injection, schedule: Q01DX001 (ip), vehicle: saline + alcohol, evaluated on day 5): 115, 131, 146, 147 (2×), 150, 155, 160 % of control
T/C (dose: 8.0 mg/kg/injection, schedule: Q01DX001 (ip), vehicle: saline + alcohol, evaluated on day 30): 122 and 127 % of control
T/C (dose: 8.0 mg/kg/injection, schedule: Q01DX001 (ip), vehicle: saline + alcohol, evaluated on day 45): 125 % of control
T/C (dose: 8.0 mg/kg/injection, schedule: Q01DX009 (ip), vehicle: Klucel (hydroxypropylcellulose) (HPC)): 184 [5 of 6 alive], 252, 311, 319 % of control
T/C [1]: 143, 231, 232, 297, 311, 337 % of control
survivor count [1]: 3 of 6
T/C (dose: 8.0 mg/kg/injection, schedule: Q01DX009 (ip), vehicle: saline, evaluated on day 30): 159 (2×), 183, 233, 239, 255, 265, 288, 323, 325 % of control (2×)
T/C (dose: 8.0 mg/kg/injection, schedule: Q01DX009 (ip), vehicle: saline, evaluated on day 60): 427, 491, 525, 549 % of control
T/C (dose: 9.48 mg/kg/injection, schedule: Q01DX001 (ip), vehicle: saline + alcohol): 141 % of control
T/C (dose: 10.0 mg/kg/injection, schedule: Q01DX001 (ip), vehicle: Klucel (hydroxypropylcellulose) (HPC)): 130 % of control
T/C (dose: 10.0 mg/kg/injection, schedule: Q01DX001 (ip), vehicle: other): 133 % of control
T/C (dose: 10.0 mg/kg/injection, schedule: Q01DX001 (ip), vehicle: saline + alcohol, evaluated on day 5): 156 % of control
T/C (dose: 10.0 mg/kg/injection, schedule: Q01DX001 (ip), vehicle: saline + alcohol, evaluated on day 6): 166 % of control
T/C (dose: 10.0 mg/kg/injection, schedule: Q01DX001 (ip), vehicle: saline + alcohol, evaluated on day 8): 154 % of control
T/C (dose: 10.0 mg/kg/injection, schedule: Q01DX001 (ip), vehicle: saline + alcohol, evaluated on day 30): 150 % of control
T/C (dose: 10.0 mg/kg/injection, schedule: Q01DX001 (ip), vehicle: saline + alcohol, evaluated on day 45): 155 % of control
